Results taken from publication doi:10.1101/848580.
No constants are given. Whether binding was seen depends on the method and setting. In cells and extracts the contact can be indirect. These calls come from enrichment with a bait or labelling near it, and not all partners need be listed.

Target: altFUS-FLAG (FLAG-tagged altFUS) (human)
Assay: affinity purification with mass spectrometry

binding: binds
B1: ERLIN2 (protein, UniProt O94905 1-339)
chain: MAQLGAVVAVASSFFCASLFSAVHKIEEGHIGVYYRGGALLTSTSGPGFHLMLPFITSYKSVQTTLQTDEVKNVPCGTSGGVMIYFDRIEVVNFLVPNAVYDIVKNYTADYDKALIFNKIHHELNQFCSVHTLQEVYIELFDQIDENLKLALQQDLTSMAPGLVIQAVRVTKPNIPEAIRRNYELMESEKTKLLIAAQKQKVVEKEAETERKKALIEAEKVAQVAEITYGQKVMEKETEKKISEIEDAAFLAREKAKADAECYTAMKIAEANKLKLTPEYLQLMKYKAIASNSKIYFGKDIPNMFMDSAGSVSKQFEGLADKLSFGLEDEPLETATKEN
